Measurements reported in PubChem BioAssay AID248 (DTP/NCI, 2004).
The list does not hold the whole screen: it gathers tests that were run many times, whatever their T/C, doses with no T/C, and many T/C values between a quarter and a half above the control. Further doses and runs are listed elsewhere. T/C is the treated group as % of the vehicle group. Some entries give survivors of the animals treated and no T/C: the source holds a T/C of zero for them, seemingly a mark for toxic or unscored doses. Some doses without a T/C left all or most animals alive at the check, yet need not have been tolerated: survival well below the control is almost never listed, so the zero probably covers shortened survival too. Survivors were counted at the toxicity check, usually on the fifth day, unless a day is given; later deaths do not show. Schedule codes are those of the source, taken here to give the interval after Q, in days (D) or hours (H), and the number of doses after X. Some schedule codes hold Z or #, which are not explained here. Some doses were run more than once; their values stand side by side, smallest first. For survival time, this PubChem deposit counts one and a half times the control or more as active, and values a quarter to a half above the control carry no call in these data; other NCI protocols may use other cut-offs. Some T/C values are followed by the survivors on the day toxicity was checked, most often the fifth; where none is given, no animal had died by that day.

Tested on: L1210 leukemia ip in BDF1 mice, survival T/C
Assay: NCI In Vivo Anticancer Drug Screen. Data for tumor model L1210 Leukemia (intraperitoneal) in B6D2F1 (BDF1) mice
Conditions: T/C endpoint: mean survival time, higher T/C = longer survival
[1] = dose: 100.0 mg/kg/injection, schedule: Q04DX003 (ip), vehicle: Klucel (hydroxypropylcellulose) (HPC)
[2] = dose: 200.0 mg/kg/injection, schedule: Q04DX003 (ip), vehicle: Klucel (hydroxypropylcellulose) (HPC)
[3] = dose: 400.0 mg/kg/injection, schedule: Q04DX003 (ip), vehicle: Klucel (hydroxypropylcellulose) (HPC)
[4] = dose: 400.0 mg/kg/injection, schedule: Q04DX002 (ip), vehicle: Klucel (hydroxypropylcellulose) (HPC)
[5] = dose: 400.0 mg/kg/injection, schedule: Q01DX009 (ip), vehicle: saline with Tween-80
[6] = dose: 400.0 mg/kg/injection, schedule: Q04DX003 (ip), vehicle: saline with Tween-80
[7] = dose: 100.0 mg/kg/injection, schedule: Q01DX009 (ip), vehicle: saline with Tween-80
[8] = dose: 100.0 mg/kg/injection, schedule: Q04DX002 (ip), vehicle: Klucel (hydroxypropylcellulose) (HPC)

With `CC(=O)NC(C)(C)CC(C)(C)C` the survivor count (dose: 50.0 mg/kg/injection, schedule: Q01DX009 (ip), vehicle: Klucel (hydroxypropylcellulose) (HPC)) was 2 of 6, the survivor count [1] was 2 of 6 and the survivor count (dose: 200.0 mg/kg/injection, schedule: Q01DX001 (ip), vehicle: saline with Tween-80) was 1 of 6. The survivor count [2] was 0 of 6, the survivor count (dose: 400.0 mg/kg/injection, schedule: Q01DX001 (ip), vehicle: saline with Tween-80) was 0 of 6 and the survivor count [3] was 0 of 6.
With `CSc1nnc(N)s1` the T/C [4] was 146 % of control.
With `Cc1cc(C)c(C2CC3CCC2C3)cc1N` (centres undefined) the survivor count (dose: 100.0 mg/kg/injection, schedule: Q04DX002 (ip), vehicle: saline) was 3 of 3, the T/C [2] was 139 % of control [5 of 6 alive] and the survivor count (dose: 400.0 mg/kg/injection, schedule: Q04DX002 (ip), vehicle: saline) was 1 of 3. The survivor count [3] was 0 of 6.
For `CNC(=O)c1ccc[n+](Cc2ccccc2)c1`, the survivor count (dose: 300.0 mg/kg/injection, schedule: Q01DX001 (ip), vehicle: saline) was 1 of 6.
With `Cc1cc(N(CCCOS(C)(=O)=O)CCCOS(C)(=O)=O)ccc1C=Nc1ccc(-c2nc(Cc3ccccc3)sc2C)cc1` the survivor count [5] was 1 of 6.
For `CN(N=O)C(=O)NCCC#N`, the survivor count (dose: 200.0 mg/kg/injection, schedule: Q01DX Z (ip), vehicle: carboxymethylcellulose (CMC)) was 3 of 6, the survivor count (dose: 250.0 mg/kg/injection, schedule: Q01DX Z (ip), vehicle: carboxymethylcellulose (CMC)) was 0 of 6 and the survivor count (dose: 300.0 mg/kg/injection, schedule: Q01DX Z (ip), vehicle: carboxymethylcellulose (CMC)) was 0 of 6.
`C[n+]1ccc(/C=C/c2ccc(Cl)c(Cl)c2)c2ccccc21` was tested, and the survivor count [1] was 0 of 6, the survivor count [2] was 0 of 6 and the survivor count [3] was 0 of 6.
In the case of `O=C(/C=N/O)Nc1cc(Cl)c(Cl)cc1Cl`, the survivor count [6] is reported as 3 of 6.
In the case of `BrCOCCCCOCBr`, the T/C [7] is reported as 126 % of control [2 of 2 alive].
With `CCCCC(CC)CNC(C)=O` (centres undefined) the survivor count [3] was 2 of 6.
For `CC[n+]1ccccc1-c1ccc(NC(=O)c2ccc(C(=O)Nc3ccc(-c4ccccn4)cc3)cc2)cc1`, the T/C (dose: 1.1 mg/kg/injection, schedule: Q01DX Z (ip), vehicle: saline) was 136 % of control, the T/C (dose: 1.7 mg/kg/injection, schedule: Q01DX Z (ip), vehicle: saline) was 133 % of control and the T/C (dose: 6.6 mg/kg/injection, schedule: Q01DX001 (ip), vehicle: saline) was 136 % of control. The T/C (dose: 10.0 mg/kg/injection, schedule: Q01DX Z (ip), vehicle: saline) was 131 and 139 % of control, the survivor count (dose: 55.0 mg/kg/injection, schedule: Q01DX Z (ip), vehicle: saline) was 6 of 6 and the survivor count (dose: 60.0 mg/kg/injection, schedule: Q01DX001 (ip), vehicle: saline) was 4 of 4. For the same molecule, the survivor count (dose: 80.0 mg/kg/injection, schedule: Q01DX Z (ip), vehicle: saline) was 6 of 6, the survivor count (dose: 90.0 mg/kg/injection, schedule: Q01DX001 (ip), vehicle: saline) was 4 of 4 and the survivor count (dose: 135.0 mg/kg/injection, schedule: Q01DX001 (ip), vehicle: saline) was 4 of 4.
With `c1ccc2c(c1)CCc1ccccc1CNC2` the survivor count (dose: 100.0 mg/kg/injection, schedule: Q01DX009 (ip), vehicle: Klucel (hydroxypropylcellulose) (HPC)) was 0 of 6, the survivor count [8] was 0 of 3 and the survivor count (dose: 200.0 mg/kg/injection, schedule: Q01DX009 (ip), vehicle: Klucel (hydroxypropylcellulose) (HPC)) was 0 of 6. The survivor count (dose: 400.0 mg/kg/injection, schedule: Q01DX009 (ip), vehicle: Klucel (hydroxypropylcellulose) (HPC)) was 0 of 6.
`CCOC(=O)NNC(=O)OCC` was tested, and the survivor count (dose: 50.0 mg/kg/injection, schedule: Q01DX009 (ip), vehicle: saline with Tween-80) was 3 of 3, the survivor count [7] was 1 of 3 and the survivor count [1] was 3 of 6. The survivor count (dose: 200.0 mg/kg/injection, schedule: Q01DX009 (ip), vehicle: saline with Tween-80) was 0 of 3 and 0 of 6, the survivor count [2] was 0 of 6 and the survivor count (dose: 300.0 mg/kg/injection, schedule: Q01DX001 (ip), vehicle: acetone) was 2 of 6. The survivor count [3] was 0 of 6.
With `N#CCN(CC#N)CC#N` the survivor count (dose: 12.5 mg/kg/injection, schedule: Q04DX003 (ip), vehicle: saline with Tween-80) was 6 of 6.
`O=C(Nc1ccccc1)Oc1ccc(OC(=O)Nc2ccccc2)c(Cl)c1` was tested, and the survivor count (dose: 400.0 mg/kg/injection, schedule: Q04DX002 (ip), vehicle: saline + alcohol) was 3 of 3.
`CC(C)CC(NC(=O)C(Cc1ccc(OCc2ccccc2)cc1)NC=O)C(=O)O` (centres undefined) was tested, and the survivor count [5] was 2 of 6.
With `Cc1cc[c]([Hg][I])cc1` the survivor count (dose: 25.0 mg/kg/injection, schedule: Q01DX009 (ip), vehicle: Klucel (hydroxypropylcellulose) (HPC)) was 4 of 6, the survivor count (dose: 50.0 mg/kg/injection, schedule: Q04DX002 (ip), vehicle: Klucel (hydroxypropylcellulose) (HPC)) was 1 of 3 and the survivor count [8] was 0 of 3. The survivor count (dose: 200.0 mg/kg/injection, schedule: Q04DX002 (ip), vehicle: Klucel (hydroxypropylcellulose) (HPC)) was 0 of 3 and the survivor count [4] was 0 of 3.
With `CC(=O)NC1=C(N2CCNCC2)C(=O)c2ccccc2C1=O` the survivor count (dose: 100.0 mg/kg/injection, schedule: Q04DX003 (ip), vehicle: saline with Tween-80) was 2 of 6, the survivor count (dose: 200.0 mg/kg/injection, schedule: Q04DX003 (ip), vehicle: saline with Tween-80) was 0 of 6 and the survivor count [6] was 0 of 6.
With `COc1cc2c(cc1OC)C(Cc1ccc(N)cc1)N(C)CC2` (centres undefined) the survivor count (dose: 100.0 mg/kg/injection, schedule: Q01DX001 (ip), vehicle: saline) was 1 of 4, the survivor count (dose: 200.0 mg/kg/injection, schedule: Q01DX001 (ip), vehicle: saline) was 0 of 4 and the survivor count (dose: 400.0 mg/kg/injection, schedule: Q01DX001 (ip), vehicle: saline) was 0 of 4.
For `CCCCS(=O)(=O)F`, the survivor count (dose: 200.0 mg/kg/injection, schedule: Q04DX002 (ip), vehicle: saline with Tween-80) was 0 of 3 and the survivor count (dose: 400.0 mg/kg/injection, schedule: Q04DX002 (ip), vehicle: saline with Tween-80) was 0 of 3.
For `OC1OC(CN(CCCl)c2ccccc2)C(O)C(O)C1O` (centres undefined), the T/C (dose: 40.0 mg/kg/injection, schedule: Q01DX Z (ip), vehicle: methylcellulose (MC)) was 126 % of control.
